Reference: patent publication US20240287489A1, “CHITINOLYTIC ENZYME-BASED PLANT PROTECTION AGENTS” (GLOBACHEM NV, priority 2021, published 2024)
Some entries share one result that the patent states for a list of compounds. Some ranges recur; such a range may be that of the whole group of compounds.

B1: Chitinase 1: chitinolytic enzyme from P. orarium, SEQ ID NO: 1, recombinant with PelB signal peptide and 6×His tag; run 19 = 2 μM alone (protein, listed as Photobacterium orarium)
chain: MAAPGTPQIAWMETDYAIVEVDQAASAYKSLITVKPAAEVPVAWQRYSGETADLWKVKLNGNVVFEQSIAPASSGAGSTTLSVAQGGQYAMTVELCSGTGAAQACTSSAATNIVVADTDGSHLDPLPMNVDANNGNYTTPANTVVGAYFVEWGVYGRKFSVDNIPAQNLTHILYGFIPICGPNESLGEIENGNSLAALNRACQGTPDYEVVIHDPWAAVQMPQPQSGHTHSTPYKGTYGQMMALKQRYPDLKIVPSVGGWTLSDPFYSFTDKAKRDIFVASVKKFLKTWKFFDGVDIDWEFPGGKGANANLGDPVNDGPAYVALMRELRVMLDELEAETGRQYELTSAIGVGYDKIDVVNYADAVQYMDYIFAMTYDFFGGWNNVPGHQTALFCGSHMSADVCNGTGVDENGVPRQGPAYTAAHGIDRLLAQGVPANKLVLGTAMYARGWTGVTEASMTDPTNPMTGTGNGMVPGSWEPGVIDYKDVVTDYINNAAVTKGYDAQAEAPWAYNPSNGNLITYDDRRSVLAKGQYVRNLGLAGLFAWEIDADNGDILNAMQDSLAGGGGNYAPVAKAGADQVVNGAASVTLDGSASSDRDGQIVSYQWTQTSGPALTLTGSDTATATVAVPEVTADTQYAFTLTVTDNAGDTATDSVTVTAKAPGSNTAPVVAVSGPATASAGDTVVLDASQSSDADGDTLTFTWTVPAGVNATVNGATVSFVADSYTVDTPLNFTVAVSDGTDSVTESVTVTVLKDGGSTGCTNAWATGGVYNSGDIVTHSGKSWKAKWWTTGEEPGTTGEWGVWEDLGAANCQIE
modifications: PelB signal peptide; 6xHis tag; Chitinase 1
notes: run 19 = 2 μM alone
B2: Chitinase 3: chitinolytic enzyme from P. orarium, SEQ ID NO: 3, recombinant with PelB signal peptide and 6×His tag (protein, listed as Photobacterium orarium)
chain: MALAAPGTPQLAWMETDYAIVEVDQAATAYKDLVTVKNAADVPVAWQRYSGETADHWKVKLNGNVAFEESINPASSGAGSTTLSITQGGQYALTVELCSGSGAEEACSSSPATNIVVADTDGSHLDPLPMNVDPNNGTYSTPADTVVGAYFVEWGVFGRKFTVDKIPAQNLTHILYGFIPVCGPNESLGEIESGNSLAALNRACAGTPDFEVAIHDPWAAVQMPQPQSGHTYSTPYKGNYGQLMALKQRYPDLKVIPSIGGWTLSDPFFSFTDKSKRDVFVASVKKFLQTWKFFDGVDIDWEFPGGKGANTTLGDPVNDGPAYVALMRELRTMLDGLEAETGRQFELTSAIGVGYDKIDVVNYAEASQYMDYIFNMSYDFYGGWSNVTGHQTALNCGSHLTADQCNGTGVDENGEPRQGPAYTTAHGVERLLAQGVPANKLVVGAAMYGRGWTGVTQASMTDPSNPMTGVGNGAVAGSWEAGVIDYKDVVTRYENKAGVVLGYDEQAEAPWAYDPSNGDLVTYDSPRSIMAKGQYVRDLGLAGLFAWEIDADNGDILNAMQESLAGAPAGNRAPVARAGSDQQVNTAATVTLNGSSSTDSDGQIAGYQWVQTSGPALTLNGANTASATISVPDVTVDTQYVFTLTVTDNEGATATDSITVTAKAPGAQNTAPVASLTGPGTANADDVITLDASQSTDADGDTLTYDWTVPAGVNAVINGSSLSFTADSYTTDTALSFSVSVSDGTASDAASLTVTIAKDESGTGGEGDFPAYVEGTAYQAGDQVSNGGVNFECKPYPYSGWCSGAAWAYEPGVGVYWQDAWTQLIE
modifications: PelB signal peptide; 6xHis tag; Chitinase 3
B3: Chitinase 4: chitinolytic enzyme from P. orarium, SEQ ID NO: 4, recombinant with PelB signal peptide and 6×His tag (protein, listed as Photobacterium orarium)
chain: MAQAAANCRPDGLYQTPGVTVPYCTVYDQDGREKMGVDHPRRVIGYFTSWRSGNDPQSSYLVNDIPWDSLTHINYAFVSIGSDGKVNIGNVNNPDNPAVGKEWPGVEIDPALGFKGHFGALATAKAQHGVKTLISIGGWAETGGHFDDNGNRVADGGFYTMTTNADGSINHQGIQTFADSAVAMMRQYKFDGLDIDYEYPTSMQGAGNPDDFAYSDAMRPHLMKSYHELMKVLREKLDQASAQDGHHYMLTIAAPSSGYLLRGMETMSVTKYLDYVNIMSYDLHGAWNDYVGHNASLFDSGLDAELEAGNVYGTAQYKKTGYLNTDWAYHYFRGSMPAGRINIGVPYYTRGWQGVTGGTNGLWGKAALPNQSDCPTGTGAGTSNCGYGAIGIDNMWHDKDANGNEMGAGSNPMWHAMNLANGVYGSYTAAYGLDPVNDPQDALTGTYTRHYDSVSVAPWLWNADKKVFLSTEDKESINTKADYVIEQGIGGIMFWELAGDYSCYNLDANGNRTTVDPTENACKTGNGEYHMGDTMTKAIHNKFATATPYGNTLAEGAIPTEAVNIDVSVTGFKVGDQNYPLNPTMTLTNKTGQTLPGGTEFQFDIPTSTPDNMSDQSGANLQVISSGHTRGDNIGGLDGNFHRVAFTLPSWKQLGNNESFELTLNYFLPISGPANYSVRVNNADYALAFEQPDLPIADLSNGGGDNGGGDGNNGDCVTTGVNTYPNWPQTDWAGNPSHAGTGDKIIYNGAVYQAKWWTNSVPGSDGSWDTVCTVQIE
modifications: PelB signal peptide; 6xHis tag; Chitinase 4
B4: Chitinase 2: chitinolytic enzyme from P. orarium, SEQ ID NO: 2, recombinant with PelB signal peptide and 6×His tag (protein, listed as Photobacterium orarium)
chain: MATANYNPDGVYSAGEQVIYQGATYQALRSTENEAPDTYLGDAWQQVNAQNVTSSTTPTYPAYQSSAVYVGGDHVSYNSQIYKAKWWTQGEAPDATPGTGVWEWVSADNNPDPGPGPDPDPTPEPTPANGIIGQNPDGSYIMSKTYLDAREAELTSSPEFAAVLASISTRDNAVVEAVVPGLSTNPDNVKRVEALISEQKWDALFPERNVVYTYSNFLKAVAKFKGFCATYTDERAAQSDAICAKSLAVMFAHFTQETGAHNPHSPYEEWRQGLFFVREAGCSEEASSCGYNSECAASNWQTEQWPCGTNPDGSYVKYFGRGAKQLSYHYNYGPFSDFIFNDVNVLLQDPDRVADSWLNLASAVFFFVYPQPPKPSMLHVIDGTWQPTAADIAEKRVPGFGVTTMIINGGIECTLDTEKPQSVNRIKYYRGHAAALGVAIPADEQLGCAGMKAFKKTGDSTFGLYWENDWSYYPDNPGGSSFACRIESGYQTAHTTLKKGDYAKCIQKYYGVTIE
modifications: PelB signal peptide; 6xHis tag; Chitinase 2
B5: Chitinase 5: chitinolytic enzyme from P. orarium, SEQ ID NO: 5, recombinant with PelB signal peptide and 6×His tag (protein, listed as Photobacterium orarium)
chain: MAMGWSQININGVQKWEEAYSLNVDAANEIITIGAADTAGALYASQSLLQLVDGNKVPEVQITDAPRFAYRGFSVDAVRNFRTKDAIIQLLDQMAAFKLNKLHLRLADDEGWRIEIAGLPELTDVGATRCHDPEEKACILPFLGAGPDGSPESNGYYTATDYQDILSHAAALNIEVVPEIDIPGHAHAAIKAMEARYDHYAAQGNMAEANKYLLTDFNDTTQYLSVQMFTDNAINVCMESSYNFVDAVVSGLVSLHQGVQPLKTFHFGGDEIAGAWINSPACQDFIANNTDGVHSVSDLSRYFVERISVITANYGLDMAGWEDGLMHDGQVYPRSQMANNQLWGNAWQNIWEWGVADRAYNLANNDYKVVYNHATHLYFDHPYEPDPNERGYYWAPRFTDTRKTFGFMPDDVFANADFTRAGAPITKAEVVASAGVKKLLKPENVLGLQGSLWAEAVRTEDQFEGMIFPRVLGLAERAWHTATWEANDNAGIALDETGRNADYNHFANLLGQKVLPKLEQAGIAFNLPVPGGVIENGVLQANSTFPGLTIEYSTDQGTSWQSYDHLNPPAVAAGVQLRTVSGQRTSRVTTVNIE
modifications: PelB signal peptide; 6xHis tag; Chitinase 5

Experiment: Temperature, pH and NaCl optima and temperature stability of recombinant chitinases (reducing end assay)
Format: biochemical
Conditions: NaCl amounts up to 5% (w/v)
Protocol: All enzymes were first characterized regarding their temperature and pH-optima as well as the optimum NaCl content as the enzymes were isolated from a sea-water microorganism. As the future intention is to integrate these novel enzymes in a degradation processes of natural chitin, all parameters were determined using chitin powder as a substrate instead of pre-treated analogs such as colloidal chitin, glycol chitin or artificial fluorogenic substrates. […] (FIG. 5A). Next, enzyme temperature stability was investigated (FIG. 51). […] Enzyme C1 retained a 50% residual activity after 240 min incubation at 60° C., while the activity of the other chitinases dropped below 50% after 15 min and remained on that level.
Given the marine origin of the P. orarium strain, the effect of salt was also evaluated, testing the addition of NaCl to the standard buffer. […] Increasing NaCl amounts up to 20% (w/v) reduced enzyme activity substantially to 10% for C2, 4 and 5, with C1 and C3 showing highest tolerance (65% activity).
For the determination of enzymatic activity of recombinant chitinases, a reducing end assay was carried out [Svein et al., Carbohydr Polym, 2004. 56(1): p. 35-39.]. Fractions containing chitinases were incubated with 5% (w/v) chitin powder extracted from shrimp shells (˜400.000 g/mol; Carl Roth) in MAT buffer for 2 h in an overhead shaker at ambient temperature (standard conditions). Samples were centrifuged at 13000×g for 2 min and 40 μl of the supernatant was mixed with 40 μl 0.5 M NaOH and 40 μL of a reagent containing 1.5 mg/ml 3-Methyl-2-benzothiazolinonhydrazon and 0.75 mg/ml Dithiothreitol. Samples were incubated at 80° C. for 15 min and then thoroughly mixed with 80 μl of 0.5% (w/v) FeNH4(SO4)2)×12H2O, 0.5% (w/v) sulfamic acid and 0.25 M HCl. After cooling down to room temperature, 100 μl of the samples were measured at 620 nm. A calibration curve of N-acetyl-glucosamine was constructed freshly for each measuring cycle. One unit [U] was defined as the amount of enzyme required to release 1 μmol of reducing sugars per hour.
Enzyme samples were incubated at different temperature (10-60° C., 10° C. increment) and pH (4-11, increment 1) using different buffer systems (Acetate, Tris-HCl, MES, total molar concentration 100 mM), as well as NaCl content (0, 1. 2.5, 5, 10 and 20% w/v) to determine optimum reaction conditions. All experiments were carried out at 1.0 ml scale using 2 μM of the respective enzymes and a 5% (wv) suspension of chitin powder extracted from shrimp shells (˜400.000 g/mol; Carl, Roth) in 100 mM MAT buffer. For the determination of the substrate specificity, chitin powder (5% w/v), glycol chitin (10% v/v), colloidal chitin (5% w/v), chitosan [DA 15-25%, medium molecular weight, Sigma-Aldrich] (5% w/v) and microcrystalline cellulose powder (Sigma Aldrich) (5% w/v) were investigated, respectively. The effect of several potential co-factors on activity was elucidated at a concentration of 1 mM. Additionally, the effect of detergents [SDS 0.5% (w/v), Tween-20 and Triton X-100 both at 0.5% (v/v)] and chemicals (Imidazole 100 mM, EDTA 1 mM) on enzymatic activity was assessed. Samples were incubated in a thermomixer for 16 h at 900 rpm. After incubation, samples were analyzed using the enzyme assay. Thermostability was assessed after incubation of recombinant chitinases at 60° C. for different durations followed by the quantification of residual enzyme activity under standard assay conditions.

Molecule	effect of NaCl on enzyme activity
B1	beneficial effect
B2	beneficial effect
B3	beneficial effect
B4	beneficial effect

Same assay, conditions: at 50° C. and 60° C.

Molecule	loss of activity
B4	more than 50%
B5	more than 50%

Same assay, conditions: chitin powder, pH 8

Molecule	temperature range in which highly active
B1	10-50 °C
B2	10-50 °C
B3	10-50 °C
